The text below walks through data of publication PMC8268430.

No constants are given. Whether binding was seen depends on the method and setting. Binding calls can cover weak binding; strength is not graded here. Where a sequence is shown, tags or fusion partners need not be part of it. For some assays here: In cells and extracts the contact can be indirect.

In assay [1] the target is T1, NAC102-eYFP (Arabidopsis thaliana) (UniProt Q8H115).
T1 sequence: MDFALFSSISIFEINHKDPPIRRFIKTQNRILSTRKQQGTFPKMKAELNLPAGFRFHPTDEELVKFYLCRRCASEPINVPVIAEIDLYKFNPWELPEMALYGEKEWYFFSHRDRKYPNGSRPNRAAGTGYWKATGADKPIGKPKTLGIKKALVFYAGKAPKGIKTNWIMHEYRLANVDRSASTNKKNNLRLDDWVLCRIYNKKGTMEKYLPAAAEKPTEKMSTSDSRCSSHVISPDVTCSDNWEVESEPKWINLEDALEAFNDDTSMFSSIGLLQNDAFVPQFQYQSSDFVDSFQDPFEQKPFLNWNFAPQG
Briefly: co-IP; total proteins of 8-day-old NAC102-eYFP transgenic seedlings, GFP-Trap beads 1 h; IP buffer 50 mM Tris-HCl pH 7.4, 150 mM NaCl, 1% Triton X-100, 1% sodium deoxycholate, 20 mM EDTA; wash buffer also with 0.1% SDS; blots with antibodies against rpoA, rpoB, rpoC1, rpoC2, rpoTp, rpoTmp; SSU-eYFP line as negative control; repeated twice.

Assay [2] has as its target T2, NAC102 fused to the GAL4 DNA-binding domain (BD) (Arabidopsis thaliana) (UniProt Q8H115).
T2 sequence: T1 sequence
Put plainly: two-hybrid; NAC102 fused to GAL4 BD as bait (pGBKT7, Y187), PEP and NEP subunits fused to GAL4 AD as prey (pGADT7, AH109); mated, diploids plated on DDO and on QDO + 10 mM 3-AT, 28 °C; growth compared with the AD control.

With rpoTmp (endogenous), the binding entry in assay [1] is listed as “binds”. On to “rpoTmp fused to the GAL4 activation domain (AD) (Arabidopsis thaliana)”, for which the binding entry in assay [2] is reported as “binds”.
